The text below walks through data of paper PMC3260246.

The chains behind the UniProt entries cited, without tags or fusion partners. Where a name states a change or a piece, a line headed by the entry shows the natural chain unless it says otherwise.
UniProt P04792: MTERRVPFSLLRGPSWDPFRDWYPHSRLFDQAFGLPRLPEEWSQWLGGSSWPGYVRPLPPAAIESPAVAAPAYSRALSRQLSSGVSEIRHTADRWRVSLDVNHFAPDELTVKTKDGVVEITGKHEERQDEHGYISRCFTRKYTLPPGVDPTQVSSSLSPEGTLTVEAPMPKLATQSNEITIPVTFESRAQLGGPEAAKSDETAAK

These are yes or no findings as the source states them, for the method shown. Some binding calls cover weakened binding; strength is not graded here.

The target in the assay is Hsp27 R12A mutant (human) (UniProt P04792). As to the kind of experiment: multi-angle light scattering; molar mass and hydrodynamic radius of wild-type and R12A proteins, ASTRA 5.3.4; conditions as in refs 32, 58; both purified.

For the substance “Hsp27 R12A mutant (from UniProt P04792 1-205)”, the binding result is “binds”.
